Assay results: PMC10938814

By UniProt entry, the sequences of proteins in these tests, tags left out. Where a name states a change or a piece, a line headed by the entry shows the natural chain unless it says otherwise.
UniProt Q8BK06: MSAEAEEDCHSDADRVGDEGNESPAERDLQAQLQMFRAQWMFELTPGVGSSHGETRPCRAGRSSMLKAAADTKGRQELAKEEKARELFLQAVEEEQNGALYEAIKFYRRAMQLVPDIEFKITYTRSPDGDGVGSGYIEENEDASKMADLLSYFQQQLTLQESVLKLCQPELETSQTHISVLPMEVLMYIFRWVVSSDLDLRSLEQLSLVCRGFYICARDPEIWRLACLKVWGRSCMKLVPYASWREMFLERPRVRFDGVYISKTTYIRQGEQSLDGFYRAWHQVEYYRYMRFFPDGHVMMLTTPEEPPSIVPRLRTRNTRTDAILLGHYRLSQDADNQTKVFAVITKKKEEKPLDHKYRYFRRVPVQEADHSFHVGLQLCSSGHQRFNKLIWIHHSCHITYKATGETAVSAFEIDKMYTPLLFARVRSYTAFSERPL
UniProt P50516: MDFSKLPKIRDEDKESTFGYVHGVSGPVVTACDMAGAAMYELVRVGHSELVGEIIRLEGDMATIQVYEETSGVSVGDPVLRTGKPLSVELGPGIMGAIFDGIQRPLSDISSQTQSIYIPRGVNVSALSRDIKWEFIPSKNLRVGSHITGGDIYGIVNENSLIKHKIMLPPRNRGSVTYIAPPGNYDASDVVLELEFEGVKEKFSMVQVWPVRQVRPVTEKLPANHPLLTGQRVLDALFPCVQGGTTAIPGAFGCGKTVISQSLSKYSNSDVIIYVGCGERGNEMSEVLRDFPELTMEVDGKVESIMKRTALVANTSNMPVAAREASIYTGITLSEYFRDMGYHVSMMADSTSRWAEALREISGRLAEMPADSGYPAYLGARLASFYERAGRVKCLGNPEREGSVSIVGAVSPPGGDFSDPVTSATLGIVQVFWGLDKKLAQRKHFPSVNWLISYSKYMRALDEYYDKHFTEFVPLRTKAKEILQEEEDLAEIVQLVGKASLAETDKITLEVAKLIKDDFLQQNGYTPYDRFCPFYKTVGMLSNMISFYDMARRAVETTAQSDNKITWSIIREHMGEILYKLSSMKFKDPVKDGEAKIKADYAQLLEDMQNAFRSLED
UniProt Q9D1K2: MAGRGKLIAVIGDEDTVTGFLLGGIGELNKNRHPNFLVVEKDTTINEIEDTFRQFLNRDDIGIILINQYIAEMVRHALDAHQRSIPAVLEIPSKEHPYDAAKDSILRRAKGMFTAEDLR

Biological target: FLAG-tagged Fbxo9-ΔF (stable 889DTC cell line) (mouse) (UniProt Q8BK06)
Test: affinity purification with mass spectrometry; 889DTC cells stably expressing FLAG-Fbxo9-ΔF, treated with 2 mM cross-linker DSP for 30 min at room temperature; NP-40 lysate; anti-FLAG M2 beads; five washes with PBS

Row | binding | Substance
1 | binds | Atp6v1a (endogenous, 889DTC) (from UniProt P50516 1-617)
2 | binds | Atp6v1f (endogenous, 889DTC) (from UniProt Q9D1K2 1-119)

These are yes or no findings as the source states them, for the method shown. Binding seen in cells or lysates may run through a third protein. A yes stands for co-enrichment or nearness to the bait. Other partners may have been found.
